5 molecules from patent US20110111406A1 can be followed below.

For test [1], the target named is recombinant soluble human IL-6 receptor (SR344) (human). Nature of the test: Biacore T100, immobilized biotinylated SR344 (membrane-type IL-6 receptor model). In general terms: Surface plasmon resonance follows binding to a sensor surface in real time, without labels.
The target is the same in test [2]. In words: Biacore T100, SR344 as analyte, pH 7.4.
The target is the same in test [3]. Nature of the test: Biacore T100, SR344 as analyte and immobilized biotinylated SR344.
Test [4] has the same target. Nature of the test: Biacore T100, immobilized biotinylated SR344 (membrane IL-6 receptor model).
The target is the same in test [5]. In words: Biacore T100, antibody on protein A/G, ten cycles of SR344 (about 40 nM) at pH 7.4 and exposure to pH 5.8, 37C.
For test [6] the target is unchanged. In words: Biacore, SR344 as analyte and immobilized biotinylated SR344.
The target is the same in test [7]. In words: Biacore T100, SR344 as analyte, pH 7.4 and pH 5.8.

Results are given in words; binding and its absence hold for the method and conditions named. Binding calls can cover weak binding; strength is not graded here.

B1: Fv1-M71 (antibody, human IgG2, kappa)
heavy: QVQLQESGPGLVKPSETLSLTCAVSGYSISHDHAWSWVRQPPGEGLEWIGHISYSGITNYNPHLQDRVTISRDTSKNQFSLKLSSVTAADTAVYYCARFLARITAHDHWGEGTLVTVSSASTKGPSVFPLAPCSRSTSESTAALGCLVKDYFPEPVTVSWNSGALTSGVHTFPAVLQSSGLYSLSSVVTVPSSNFGTQTYTCNVDHKPSNTKVDKTVERKCCVECPPCPAPPVAGPSVFLFPPKPKDTLMISRTPEVTCVVVDVSHEDPEVQFNWYVDGVEVHNAKTKPREEQFNSTFRVVSVLTVVHQDWLNGKEYKCKVSNKGLPAPIEKTISKTKGQPREPQVYTLPPSREEMTKNQVSLTCLVKGFYPSDIAVEWESNGQPENNYKTTPPMLDSDGSFFLYSKLTVDKSRWQQGNVFSCSVMHEALHAHYTQKSLSLSPGK
light: DIQMTQSPSSLSASVGDSVTITCQASRDISSHLNWYQQKPGKAPELLIYYGSHLESGVPSRFSGSGSGTDFTFTISSLEAEDAATYYCGQGNRLPYTFGQGTKVEIERTVAAPSVFIFPPSDEQLKSGTASVVCLLNNFYPREAKVQWKVDNALQSGNSQESVTEQDSKDSTYSLSSTLTLSKADYEKHKVYACEVTHQGLSSPVTKSFNRGEC
Regarding B1, the binding entry in test [1] and in test [2] was “binds” in each case.

B2: Fv1-M73 (antibody)
heavy: QVQLQESGPGLVKPSETLSLTCAVSGYSISHDHAWSWVRQPPGEGLEWIGHISYSGITNYNPHLQDRVTISRDTSKNQFSLKLSSVTAADTAVYYCARFLARITAHDHWGEGTLVTVSSASTKGPSVFPLAPSSKSTSGGTAALGCLVKDYFPEPVTVSWNSGALTSGVHTFPAVLQSSGLYSLSSVVTVPSSNFGTQTYTCNVDHKPSNTKVDKTVERKSCVECPPCPAPPVAGPSVFLFPPKPKDTLMISRTPEVTCVVVDVSQEDPEVQFNWYVDGVEVHNAKTKPREEQFNSTFRVVSVLTVVHQDWLNGKEYKCKVSNKGLPAPIEKTISKTKGQPREPQVYTLPPSQEEMTKNQVSLTCLVKGFYPSDIAVEWESNGQPENNYKTTPPMLDSDGSFFLYSKLTVDKSRWQEGNVFSCSVMHEALHAHYTQKSLSLSP
light: DIQMTQSPSSLSASVGDSVTITCQASRDISSHLNWYQQKPGKAPELLIYYGSHLESGVPSRFSGSGSGTDFTFTISSLEAEDAATYYCGQGNRLPYTFGQGTKVEIERTVAAPSVFIFPPSDEQLKSGTASVVCLLNNFYPREAKVQWKVDNALQSGNSQESVTEQDSKDSTYSLSSTLTLSKADYEKHKVYACEVTHQGLSSPVTKSFNRGEC
Regarding B2, the binding entry in test [1] and in test [2] was “binds” each time.

B3: Fv2-IgG1 (antibody, V domains shown)
VH: QVQLQESGPGLVKPSETLSLTCAVSGYSISHDHAWSWVRQPPGEGLEWIGHISYSGITNYNPHLQDRVTISRDTSKNQFSLKLSSVTAADTAAYYCARFLARITAHDHWGEGTLVTVSS
VL: DIQMTQSPSSLSASVGDSVTITCQASQDISSHLNWYQQKPGKAPELLIYYGSHLHSGVPSRFSGSGSGTDFTFTISSLEAEDAATYYCGQGNRLPYTFGQGTKVEIE
For B3, the binding entry in test [3], in test [1] and in test [2] was “binds” each time.

B4: CLH5/L73 (antibody, IgG1, V domains shown)
VH: QVQLQESGPGLVKPSETLSLTCAVSGYSISHDHAWSWVRQPPGEGLEWIGHISYSGITNYNPHLKGRVTISRDTSKNQFSLKLSSVTAADTAAYYCARFLARITAHDHWGEGTLVTVSS
VL: DIQMTQSPSSLSASVGDSVTITCQASQHISSHLNWYQQKPGKAPELLIYYGSHLHSGVPSRFSGSGSGTDFTFTISSLEAEDAATYYCGQGNRLPYTFGQGTKVEIE
For the molecule B4, the binding entry in test [4] and in test [5] was “binds” in each case.

B5: H170/L82 (antibody, IgG1, V domains shown)
VH: QVQLQESGPGLVKPSETLSLTCAVSGHSISHHHAHSWVRQPPGEGLEWIGYISYSGITHYNPHLKGRVTISRDTSKNQFSLKLSSVTAADTAAYYCARVLARITAMDHWGEGTLVTVSS
VL: DIQMTQSPSSLSASVGDSVTITCQASQDISSHLNWYQQKPGKAPELLIYYGSHLHSGVPSRFSGSGSGTDFTFTISSLEAEDAATYYCGQGNRLPYTFGQGTKVEIE
Regarding B5, the binding entry in test [6], in test [4], in test [5] and in test [7] was “binds” in each case.
